Data as given in article PMC10039855.
These are yes or no findings as the source states them, for the method shown. In cells and extracts the contact can be indirect. Some results given as binding are weak or reduced against the parent protein; the word gives no strength. For some of these results: Tags and fused reporters may be left off the sequences shown.

The chains behind the UniProt entries cited, without tags or fusion partners.
UniProt Q96NG8: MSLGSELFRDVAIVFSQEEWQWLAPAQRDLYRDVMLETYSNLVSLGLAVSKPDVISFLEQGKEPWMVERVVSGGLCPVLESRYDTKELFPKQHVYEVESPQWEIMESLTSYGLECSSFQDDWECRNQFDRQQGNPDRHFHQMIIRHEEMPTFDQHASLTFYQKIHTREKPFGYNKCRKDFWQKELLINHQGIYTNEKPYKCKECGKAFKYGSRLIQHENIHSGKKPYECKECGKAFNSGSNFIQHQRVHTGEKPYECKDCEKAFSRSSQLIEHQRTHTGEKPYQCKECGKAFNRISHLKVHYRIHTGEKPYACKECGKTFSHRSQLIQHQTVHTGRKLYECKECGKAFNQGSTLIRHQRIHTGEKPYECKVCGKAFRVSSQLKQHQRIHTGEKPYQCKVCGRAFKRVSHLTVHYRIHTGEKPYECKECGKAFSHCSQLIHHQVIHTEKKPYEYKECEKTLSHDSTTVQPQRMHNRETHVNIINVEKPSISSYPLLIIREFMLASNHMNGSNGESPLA
UniProt P28482: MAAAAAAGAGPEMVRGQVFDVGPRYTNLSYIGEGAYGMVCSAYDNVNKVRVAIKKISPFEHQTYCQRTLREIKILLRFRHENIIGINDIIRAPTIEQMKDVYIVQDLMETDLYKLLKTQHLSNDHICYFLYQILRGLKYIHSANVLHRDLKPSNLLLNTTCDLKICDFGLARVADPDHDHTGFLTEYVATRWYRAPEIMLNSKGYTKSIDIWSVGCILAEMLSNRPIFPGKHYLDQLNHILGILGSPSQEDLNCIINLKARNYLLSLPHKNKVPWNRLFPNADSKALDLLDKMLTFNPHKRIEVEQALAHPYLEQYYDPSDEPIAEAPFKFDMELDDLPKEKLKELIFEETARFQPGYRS

T1: TJP2, overexpressed with 3x Flag (UniProt Q9UDY2)
T1 sequence: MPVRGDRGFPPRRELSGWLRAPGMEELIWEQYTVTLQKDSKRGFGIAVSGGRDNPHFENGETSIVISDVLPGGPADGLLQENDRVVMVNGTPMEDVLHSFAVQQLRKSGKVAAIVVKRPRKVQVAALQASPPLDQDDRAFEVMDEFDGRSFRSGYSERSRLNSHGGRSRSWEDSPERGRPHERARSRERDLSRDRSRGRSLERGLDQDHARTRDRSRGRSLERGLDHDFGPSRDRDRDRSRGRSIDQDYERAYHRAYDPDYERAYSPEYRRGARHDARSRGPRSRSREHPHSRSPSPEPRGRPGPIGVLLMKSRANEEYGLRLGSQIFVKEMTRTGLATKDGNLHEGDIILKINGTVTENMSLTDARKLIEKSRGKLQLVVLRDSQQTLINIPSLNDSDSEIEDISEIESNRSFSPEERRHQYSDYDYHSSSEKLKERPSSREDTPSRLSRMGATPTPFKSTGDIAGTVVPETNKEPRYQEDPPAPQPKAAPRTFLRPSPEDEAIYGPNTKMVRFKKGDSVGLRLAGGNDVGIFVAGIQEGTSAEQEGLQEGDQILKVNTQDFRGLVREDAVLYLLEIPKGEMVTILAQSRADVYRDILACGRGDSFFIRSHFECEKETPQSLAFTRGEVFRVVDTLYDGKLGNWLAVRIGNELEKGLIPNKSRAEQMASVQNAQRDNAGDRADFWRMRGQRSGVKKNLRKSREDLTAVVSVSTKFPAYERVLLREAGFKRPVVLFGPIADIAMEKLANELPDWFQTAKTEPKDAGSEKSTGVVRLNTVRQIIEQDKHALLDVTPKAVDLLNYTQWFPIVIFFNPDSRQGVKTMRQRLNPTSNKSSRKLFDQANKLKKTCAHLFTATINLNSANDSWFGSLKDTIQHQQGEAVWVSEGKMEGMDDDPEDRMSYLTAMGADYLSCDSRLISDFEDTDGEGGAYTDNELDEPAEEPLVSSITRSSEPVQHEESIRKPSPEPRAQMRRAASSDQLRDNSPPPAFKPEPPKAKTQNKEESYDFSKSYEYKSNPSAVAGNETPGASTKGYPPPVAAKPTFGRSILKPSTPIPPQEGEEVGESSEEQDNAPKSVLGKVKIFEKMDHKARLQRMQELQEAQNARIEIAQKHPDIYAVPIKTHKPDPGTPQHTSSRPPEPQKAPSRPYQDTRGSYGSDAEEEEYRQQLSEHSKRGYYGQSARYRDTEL

B1: TJP2 protein, endogenous in ccRCC cells (protein, UniProt Q9UDY2 1-1190)
chain: T1 sequence

Key:
[1] = biological target: T1, TJP2, overexpressed with 3x Flag; experiment: co-IP; anti-Flag M2 magnetic beads added to the supernatant of OSRC2 or Caki-1 cell lysates (IP lysis buffer), overnight at 4 °C, washed three times with lysis buffer; Western Blot; overexpression group against control group
[2] = biological target: Zinc finger protein 582 (ZNF582), overexpressed with 3x Flag (UniProt Q96NG8); experiment: as above

Molecule	binding [1]	binding [2]
ZNF582 protein, endogenous in ccRCC cells (from UniProt Q96NG8 1-517)	binds	–
ERK2 protein, endogenous in ccRCC cells (from UniProt P28482 1-360)	binds	binds
B1	–	binds
